Reference: patent publication US20120302530A1, “23-HYDROXY-BETULINIC ACID DERIVATIVES, PREPARATION METHODS AND USES THEREOF” (priority 2009, published 2012)
Some of these results come from one statement about several compounds together.

Test system: HIV-1Ada-M
Assay: ELISA of HIV-1Ada-M p24 antigen expression in PBMC
Assay type: cell-based
Conditions: reached within the tested range
Excerpt: (4) Quantitative Enzyme Linked Immunoadsorbent method (EIISA) detecting inhibiting effects of compounds to virus HIV-1Ada-Mp24 expression: (see JIANG, Haiou; WANG, Xu; L I, Rurun; CHEN, Dagang; B I, Kunlong, Experimental Research on Recipe Sanhuangsan Capsule Resisting AIDS Virus in Vitro, [J], Shandong Journal of Traditional Chinese medicine, 2005.8 (1):21-26).
Multi-heads sample injector is used to conduct triple dilution to the sample on the 96-hole culture plate. There are 6 dilutions, in which each dilution has 3 duplicate holes, and each hole is 100 ul. […] On the 96-hole flat culture plate, each hole is added with 25 ul virus stock solution containing 1000˜5000 pg/well P24 antigen, which is sufficiently blended. 75 ul mononuclear cell PBMC suspension liquid is added (3×10^5 cell numbers/hole). Upon placing in incubator of 37° C., 5% CO2 to the third day, 100 ul of culture medium is added to each hole. On the 7th day, cell culture supernatant is collected for p24 antigen test. According to p24 kit description, ELISA method is used to measure the virus HIV-1 p24 antigen concentration of each sample cell culture hole supernatant. The following formula is used to calculate the inhibition ratio of sample to virus.
Inhibition ratio of sample to virus p24 antigen (%)=(1−experimental hole OD value/cell+virus control hole OD value)×100%. […]

Compound | inhibition ratio of sample to virus p24 antigen
CC(C)C1CCC2(C(=O)O)CCC3(C)C(CCC4C5(C)CCC(=O)C(C)(CO)C5CCC43C)C12 (centres unmarked) [zhangnan-7] | above 50%
CC(C)C1CCC2(C(=O)O)CCC3(C)C(CCC4C5(C)CCC(O)C(C)(CO)C5CCC43C)C12 (centres unmarked) [zhangnan-8, 23-hydroxyl-dihydrobetulinic acid] | above 50%
